Data taken from ChEMBL document CHEMBL3988442, “University of Dundee, Small-Polar-MMV Screening Library” (2021).

A: 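Whole-cell growth test on Mycobacterium tuberculosis, read after 3 days in glucose-containing 7H9 medium; the read-out is not stated. Tested at 50 µM. The record gives no direction; compounds that gave an IC50 in retests scored well above the rest, so higher reads as more growth inhibition. Of about 69,000 compounds tested this way, about 760 (1.1%) reached 50% or more in at least one test.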
B: 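Phenotypic screen: M. tuberculosis growth, cholesterol and DPPC medium, 4 days; the read-out is not stated. Concentration: 50 µM. Higher reads as more growth inhibition (inferred: compounds with an IC50 in retests scored well above the rest). About 69,000 compounds were tested under these conditions; 0.54% (about 370) showed 50% or more at least once.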

Each number is a percent effect as filed. The record does not define 0% and 100%; most values in the screen are far below 50% and negative numbers occur (in some assays of this library far below -100). The compounds are a random part of those screened. Two or more numbers in one place are separate tests of the same structure; such repeats can differ widely.

SMILES,A,B
Cn1cc(S(=O)(=O)N2CCCC2CC(=O)c2cccs2)cn1 (stereo unspecified),-15.81,-10.9
Cc1nc(Nc2ncccn2)cc(C2CCCN2C2CCOCC2)n1 (stereo unspecified),-24.72,-11.65
O=C(c1cccc(C2CCNC2)c1)N1CCC(N2CCC(O)CC2)CC1 (stereo unspecified),2.649,15.56
CN1CCC(NC(=O)c2cc(Cl)cc(Br)c2O)C1=O (stereo unspecified),-13.3,15.85
COc1cc(C#N)ccc1OCCN1CCC(n2ccnc2)CC1,-11.51 & -9.652,-12.78
CCc1cnc(CN(C)C2CCN(CCc3cccs3)C2)o1 (stereo unspecified),0.03327,-8.391
CCS(=O)(=O)N1CCC2(CC(=O)N(c3cccc(C)c3)C2)C1 (stereo unspecified),3.4,7.3
CN(C)c1ncccc1CNC(=O)N(Cc1ccccc1F)C1CC1,4.392,-2.12 & 8.293
Cc1nnc(SC2CCN(c3sccc3C#N)C2=O)s1 (stereo unspecified),-15.76,-28.11
[H][C@@]12CO[C@@H](CNS(C)(=O)=O)[C@]1([H])CCN(c1cccc(C)n1)C2,-26.09,-21.59
O=C(NCC(O)c1ccc(F)cc1F)c1ccccc1F (stereo unspecified),7.926,3.602
COc1cc(OC)cc(-c2cc(N)on2)c1,-14.47 & 2.575,-24.39
CCOc1cccc(CNC(=O)N2CCC(Cc3cnn(C)c3)C2)c1 (stereo unspecified),22.8,12.6
CC(C)(C)CC(=O)NS(=O)(=O)c1ccc(C#N)cc1C(F)(F)F,-9.611 & -45.91,-31.61
O=C(Nc1cc(F)ccc1OCC1CCCO1)c1ccccn1 (stereo unspecified),8.891,-9.661
CC(=O)N1CCOC(c2cncc(CCC(=O)N(C)C)n2)C1 (stereo unspecified),-16.25,-13.38
CCN(CCO)C[C@@H]1CN(c2cccc(C(F)(F)F)n2)C[C@@H]1CO,7.957,-15.16
Cc1ccc2c(c1)c(CNC(=O)C1CC(=O)N(C3CCCC3)C1)nn2C (stereo unspecified),-35.64,-11.38
O=C(O)C(F)(F)F.O=C(O)C(F)(F)F.O=C(O)C(F)(F)F.[H][C@@]12CN(Cc3ccc(OC)cc3)C[C@]1([H])OCCN2CCN1CCCC1,-7.101,-23.39
COc1cc2ncn(CC(=O)NCCCN(C)C)c(=O)c2cc1OC,-26.76,-7.723
CC(C)Cc1noc(CN2CCCN(C(=O)c3ccccc3Cl)CC2)n1,8.594,-2.617
Cc1cc(F)ccc1S(=O)(=O)N1CCN(C)Cc2ccccc21,21.35,10.25
[H][C@@]12CS(=O)(=O)C[C@]1([H])N(C(=O)Cc1cccnc1)CCN2CCC,-3.304,-17.19
Cc1cn2c(n1)C(CNCc1ccc(C)s1)CCC2 (stereo unspecified),-22.43,-6.871
O=C(CCNc1ncccn1)NCc1csc(Br)c1,-46.69,-31.66
O=C(C1CCOCC1)N1CCc2ncc(CN3CCCC3)n2CC1.O=C(O)C(F)(F)F,-35.18,-10.09 & -12.41
COc1cccc(-c2noc(C3CCN(CC4CCCCC4)C3)n2)c1.Cl (stereo unspecified),4.506,2.203
CCS(=O)(=O)c1ccccc1N1CCC(NC(=O)c2ccc[nH]2)CC1,1.104,3.052
CC(C)Oc1cccc(CC(=O)N(CC(N)=O)C2CCCC2)c1,-3.194,-16.91
COCCNC(=O)c1nnn(Cc2ccccc2)c1OC,18.81,3.741
CC(C)(C)c1noc(CCCC(=O)NCC2CCS(=O)(=O)C2)n1 (stereo unspecified),15.68,9.533
O=C(c1cnccn1)N1CCc2onc(CN3CCCC3)c2C1,-12 & -3.977,-19.85
O=C(Cc1cccc(O)c1)N1CCC2(CC1)c1ccccc1CC2O (stereo unspecified),-20.54,-10.8 & -5.91
CC(C)(C(=O)NCC1CCN(Cc2cccnc2)C1)c1ccccc1 (stereo unspecified),11.58,3.686
COc1c(C2CCCN2CC(=O)NCc2ccccn2)c(C)nn1C (stereo unspecified),8.993,-5.426
O=C(O)C(F)(F)F.[H][C@@]12CCN(C(=O)c3cccnc3OC)C[C@@]1([H])O[C@@H](c1nnc(C)[nH]1)C2,5.002,-8.338
COc1ccc(CNC(=O)N2CCCC(Nc3ccccc3)C2)cn1 (stereo unspecified),17.58,5.241
CC1N(C)C(=O)COC12CCN(Cc1ccsc1)CC2.O=C(O)C(F)(F)F (stereo unspecified),-10.81 & -5.508,-2.224
Cc1cc(F)ccc1N1CCCC(NC2CCOCC2)C1=O (stereo unspecified),-37.11,-13.72
CS(=O)(=O)NCC1CCCCN1Cc1cccc(C#N)c1 (stereo unspecified),-18.47,-18.33
CC(C)CN(CC(=O)O)C(=O)c1ccc(F)cc1,-55.17,-15.07
Cc1cc(CNC(=O)C2CCCN2C(=O)OC(C)(C)C)no1 (stereo unspecified),19.32,1.434
[H][C@]12C[C@H](C(=O)NC)N(S(C)(=O)=O)[C@@]1([H])CN(C(=O)c1occc1C)C2,4.296,-36.32
c1cnc(N2CCCC3(CCN(Cc4ccncc4)C3)C2)nc1 (stereo unspecified),13.48,-2.737
CN(CC1COc2ccccc2O1)C(=O)c1ccc(-c2cn[nH]c2)nc1 (stereo unspecified),-1.128,34.3
CCOCCCNC(=O)C(C)n1cc(Br)cn1 (stereo unspecified),20.53,8.388
CC(CO)CNC(=O)c1cc2cccc(F)c2o1 (stereo unspecified),-28.07 & -3.058,-9.675
Cc1nc(C2CCNC2)nc2c1CCC(=O)N2C.Cl (stereo unspecified),-27.63,-10.7 & 4.534
O=C(CCCn1cncn1)NC1(c2ccccc2)CCC1,-32.55,-15.5
CC(Nc1cccc(COCc2ccco2)c1)C(=O)NC(N)=O (stereo unspecified),11.64,11.79
CC(=O)Nc1ccc(CCC2(NC(=O)C3CCCO3)CCCCC2)cn1 (stereo unspecified),9.658,2.003
CC1CCN(C(=O)NCC(=O)N(C)CC(F)(F)F)C1 (stereo unspecified),9.385,5.014
Cc1nnc(CN(C)C2CCN(Cc3nnc(C4CCC4)o3)C2)n1C (stereo unspecified),-1.816 & -2.18,-3.82
COc1ccc(C(C)NCCc2ccc(NC(C)=O)cc2)cc1F (stereo unspecified),1.271,8.425
O=C(CN1CCCCCC1=O)NC1CCc2nccn2C1 (stereo unspecified),-8.323,-13.35
CNCCNc1ccc(-c2nc(-c3cccc(OC)c3OC)no2)cn1,-2.005,7.708 & 8.032
O=C1N(CCO)CCCC12CCN(Cc1noc(C3CCCC3)n1)C2 (stereo unspecified),-22.29,5.114 & -27.53
CNC(=O)c1cc2c(nc1NCC(C)C)CCN(S(=O)(=O)N(C)C)CC2,-18.88 & 6.347,0.1661 & -10.41
CC(NC(=O)NCCNc1cccc(F)c1C#N)c1cccs1 (stereo unspecified),-6.024,-21.35
CCN(CC)c1ccc(-c2ccc(C)c(S(N)(=O)=O)c2)nn1,-18,-13.84
COc1ccc(CSc2nnc(N)n2C2CC2)cc1F,-49.03,-12.77
Cc1cc(Cl)ccc1-n1ncc(C(=O)NCC2COC(C)(C)O2)c1N (stereo unspecified),-41.69,-43.4
CC(NCC(=O)N1CCc2sccc2C1)c1ccccc1F (stereo unspecified),-7.862,7.781
CCc1nc(CN(C)CC2CCN(CC(C)O)CC2)no1 (stereo unspecified),3.485,25.52
COCc1nn(Cc2ccc(Br)s2)c(=O)o1,53.29,42.45
Cc1cc2n(n1)CC(CNCc1cnn(-c3ccccc3)c1)CN2 (stereo unspecified),-8.134,-8.039
COCCN(Cc1cccs1)C(=O)c1ccc(=O)n(C)c1,10.98,12.11
CCCc1n[nH]c(=O)n1[C@@H](CC)c1ccccc1,6.225,-4.112
Cc1ccc(C(CNCc2c[nH]nc2C)N(C)C)cc1.Cl (stereo unspecified),6.997 & 2.751,-3.821

For reference, 4 entries once more:

{"smiles": "Cc1nnc(CN(C)C2CCN(Cc3nnc(C4CCC4)o3)C2)n1C", "stereo": "stereo unspecified", "A": "-1.816 & -2.18", "B": -3.82}
{"smiles": "[H][C@]12C[C@H](C(=O)NC)N(S(C)(=O)=O)[C@@]1([H])CN(C(=O)c1occc1C)C2", "A": 4.296, "B": -36.32}
{"smiles": "O=C(NCC(O)c1ccc(F)cc1F)c1ccccc1F", "stereo": "stereo unspecified", "A": 7.926, "B": 3.602}
{"smiles": "CCS(=O)(=O)N1CCC2(CC(=O)N(c3cccc(C)c3)C2)C1", "stereo": "stereo unspecified", "A": 3.4, "B": 7.3}